# Laboratory results published in US12714682B2, “Calixarene compounds and uses thereof” (UNIVERSITÄT WIEN, priority 2019, dated 2026).
# For at least one compound, name, drawing or mass did not settle the structure.
# Tests used:
# Type in all cases: in vivo
# C57BL/6J mice [1] = experiment: LPS-induced acute lung inflammation model: respiratory function (plethysmography); settings: 100 μg LPS intratracheal, measured 24 h after; SCA-744 60 mg/kg i.p. 4 doses; dexamethasone 5 mg/kg ip. 2 doses
# Method: (§1) Acute lung inflammation was induced by intratracheal administration of 100 μg LPS (Escherichia coli O111:B4; Sigma Aldrich, St. Louis, MO, USA) dissolved in 60 μl sterile phosphate buffered saline (PBS) under ketamine (120 mg/kg ip.; Calypsol, Gedeon Richter Plc., Budapest, Hungary) and xylazine (6 mg/kg ip.; Sedaxylan, Eurovet Animal Health B.V., Bladel, Netherlands) anaesthesia. 24 h after administration, respiratory function parameters were assessed, and lung samples were harvested for histopathological evaluation.
# (§2) SCA-744 (60 mg/kg) and its vehicle were injected intraperitoneally (i.p.), 24 h, 12 h, 20 min before and 12 h after intratracheal administration of LPS. […] 24 h and 20 min before LPS treatment. Respiratory function measurement was performed 24 h after LPS administration
# Buxco FinePoint Non-invasive Airway Mechanics (NAM) double chamber plethysmography (DSI Harvard Bioscience Inc.) was used to monitor ventilatory and bronchoconstriction parameters in awake, restrained animals without the use of anesthesia. The plethysmograph measures the nasal and thoracic flows independently. […] After 10 minutes of acclimatization period baseline pulmonary functions were assessed, such as the frequency, tidal volume, minute ventilation, expiratory/inspiratory time, peak expiratory/inspiratory flow, and specific airway resistance, a measure of bronchoconstriction.
# C57BL/6J mice [2] = experiment: LPS-induced acute lung inflammation model: lung histopathology; settings: dexamethasone 5 mg/kg ip.
# Method: as §1, §2
# Excised lung tissue samples were formalin-fixed (6%) and embedded in paraffin, 5 μm sections cut and stained with haematoxylin-eosin for histological analysis. Assessment of airway inflammation was performed in a blind manner in order to evaluate perivascular/peribronchial edema, neutrophil, macrophage and lymphocyte inflammatory cell infiltration as well as goblet cell metaplasia on a semiquantitative scale ranging from 0 to 3 in 2 fields of vision from three depths of lung tissue from each animal.
# mice = experiment: CFA-induced chronic arthritis model: joint histology; settings: 60 mg/kg i.p. daily, 21-day period
# Method: The chronic arthritis was induced by intraplantar (i.pl.) injection of 20 μl complete Freund's adjuvant (CFA, heat-killed Mycobacterium suspended in paraffin oil, 1 mg/ml; Sigma Aldrich, St. Louis, MO, USA) into the right hind paw and 20 μl subcutaneously (s.c.) into the tail root. An additional s.c. injection (20 μl) was administered on the following day (day 1) into the tail root in order to potentiate the systemic effects mimicking the human condition.
# The excised tibiotarsal joints are fixed in 4% buffer formaldehye, decalcified and paraffin-embedded, sliced into sections (5 μm) and stained with hematoxylin and esosin. Arthritic changes are scored by a blinded observer using a scale of 0 to 3 according to 1) mononuclear cells infiltration into areolar tissue, 2) synovial hyperplasia, 3) cartilage destruction, 4) bone erosion.
smiles,measurement,setting,value
"C[C@@H]1C[C@H]2[C@@H]3CCC4=CC(=O)C=C[C@]4(C)[C@@]3(F)[C@@H](O)C[C@]2(C)[C@@]1(O)C(=O)CO [dexamethasone, reference compound]","respiratory function parameters (fBPM, FRC, Te, Rpef, Ti) versus control animals",C57BL/6J mice [1],"some positive effects, but parameters were still significantly altered"
same,"semiquantitative pathology scores (oedema, granulocytes, macrophages, composite; scale 0 to 3)",C57BL/6J mice [2]; SCA-744 60 mg/kg i.p.,tendency for reduction
same,granulocyte numbers (score),C57BL/6J mice [2],reducing the granulocyte numbers
same,synovial hyperplasia score (scale 0 to 3),mice,comparable to those observed upon dexamethasone treatment
